Results taken from patent US11285142B2, “Compositions and methods for identifying and treating dystonia disorders” (DUKE UNIVERSITY, priority 2015, dated 2022).
At least one structure is not confirmed: it was looked up by name or label, or the drawing left a doubt.

Tested on: delta-E Torsin1a localization in Flp-In T-REx 293 cells expressing EGFP-delta-E Torsin1a
Assay: delta-E Torsin1a mis-localization assay (high-content imaging, % cells with EGFP puncta)
Format: cell-based, human
Details: delta-E cell line, dose response
Method: To limit variation in expression levels associated with random integration or transient expression, single copies of either WT or delta-E human TOR1A cDNAs with N-terminal EGFP fusions were inserted at the FRT site in Flp-In™ T-Rex™ 293 cells (Thermo Fisher Scientific #R780-07) via flippase recombinase-mediated cassette exchange according to the manufacturer's recommended protocols.
The cells were maintained at 37° C./5% CO2. All experiments were performed on cells with fewer than 5 passages.
Torsin1a expression was also controlled by tetracycline induction to avoid selective pressure modifying the cellular phenotypes. […] The mutant phenotype was measured as the percentage of cells with one or more EGFP puncta using automated high-content imaging analysis (see infra).
The image analysis algorithm was developed using the Cellomics ArrayScan V CompartmentAnalysisV2 protocol. Hoechst's nuclear staining (Ch1: excitation 350 nm; emission 461 nm) was used for focusing and for cell identification by nuclear size, shape, and intensity. […] Detected cells were gated according to nuclear area, length-to-width ratio, and perimeter-to-area ratio. For the purpose of analysis, cell bodies were defined by a radius of 10 μm from the outer edge of the defined nucleus. […] EGFP fluorescence (Ch2: excitation 488 nm; emission 509 nm) was used for puncta detection. […]

C[C@@H]1C[C@H]2[C@@H]3CCC4=CC(=O)C=C[C@]4(C)[C@@]3(F)[C@@H](O)C[C@]2(C)[C@@]1(O)C(=O)CO [dexamethasone]
effect on delta-E Torsin1a localization (in words): neither the glucocorticoid receptor agonist dexamethasone (FIG. 2, panel h), or a small panel of additional compounds modulating glucocorticoidimineralocorticoid receptor signaling significantly modified delta-E Torsin1a localization
